Results published in the M2OR odorant receptor database.
Where a chain is given by its changes, count along the chain named. Only a part is listed here, and it is no random draw. The calls were merged from several studies; some rest on single wells. The list shows a part of the results.

Chains of the proteins cited; added tags and fusions are not shown. A line that says so, or that is headed by a name, gives the form on record, which may keep a tag or linker.
O4A15, as listed by the source: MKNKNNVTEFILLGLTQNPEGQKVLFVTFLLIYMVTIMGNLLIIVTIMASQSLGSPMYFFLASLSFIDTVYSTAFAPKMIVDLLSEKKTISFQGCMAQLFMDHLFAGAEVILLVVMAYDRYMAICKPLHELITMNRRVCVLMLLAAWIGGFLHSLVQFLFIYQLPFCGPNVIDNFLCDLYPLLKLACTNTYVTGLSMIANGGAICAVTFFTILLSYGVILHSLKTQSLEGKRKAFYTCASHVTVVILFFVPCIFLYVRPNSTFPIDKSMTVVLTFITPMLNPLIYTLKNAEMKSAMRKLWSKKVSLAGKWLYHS
O4C46, as listed by the source: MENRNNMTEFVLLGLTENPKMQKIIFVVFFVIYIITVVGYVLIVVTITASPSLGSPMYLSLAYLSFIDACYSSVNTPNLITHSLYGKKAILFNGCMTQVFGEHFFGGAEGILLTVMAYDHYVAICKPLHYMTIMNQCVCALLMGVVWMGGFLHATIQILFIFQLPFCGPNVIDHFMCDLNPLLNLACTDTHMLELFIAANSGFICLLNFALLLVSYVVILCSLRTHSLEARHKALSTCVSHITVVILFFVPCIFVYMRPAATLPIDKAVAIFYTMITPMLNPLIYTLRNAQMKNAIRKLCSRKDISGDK
O4F17, as listed by the source: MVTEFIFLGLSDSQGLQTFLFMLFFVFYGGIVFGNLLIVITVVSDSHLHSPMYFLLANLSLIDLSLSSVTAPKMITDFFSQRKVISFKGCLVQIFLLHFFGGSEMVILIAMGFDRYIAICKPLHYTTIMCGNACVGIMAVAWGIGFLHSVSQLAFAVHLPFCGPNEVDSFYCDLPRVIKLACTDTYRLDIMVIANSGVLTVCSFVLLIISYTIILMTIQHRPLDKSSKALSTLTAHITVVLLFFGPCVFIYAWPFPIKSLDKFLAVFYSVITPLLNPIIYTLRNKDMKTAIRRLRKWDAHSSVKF

Legend:
Details in all cases: stereoisomer not certain
[1] = test system: T1, O2T11
T1 sequence (whole entry): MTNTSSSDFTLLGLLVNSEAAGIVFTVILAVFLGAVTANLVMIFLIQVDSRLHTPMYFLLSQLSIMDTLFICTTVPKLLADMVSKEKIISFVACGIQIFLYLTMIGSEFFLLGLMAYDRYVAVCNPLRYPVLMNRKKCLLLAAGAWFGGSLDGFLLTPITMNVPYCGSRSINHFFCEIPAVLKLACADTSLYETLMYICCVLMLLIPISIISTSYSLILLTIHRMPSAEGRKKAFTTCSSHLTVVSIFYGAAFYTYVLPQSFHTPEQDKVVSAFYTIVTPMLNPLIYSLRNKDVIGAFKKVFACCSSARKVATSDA
Outline: (§1)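 Values were gathered from published papers (main text and supplementary material), with extra details requested from the original authors when needed, and checked for typos and inconsistencies. Each receptor–molecule pair is called responsive (active) if the original authors judged the measured signal statistically different from baseline, and non-responsive (inactive) otherwise. Assay methods varied by source, often transient mammalian cell-line luciferase assays. Recorded details include cell line, G-protein, co-transfected protein and tags.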

[2] = test system: T2, O2T29
T2 sequence (whole entry): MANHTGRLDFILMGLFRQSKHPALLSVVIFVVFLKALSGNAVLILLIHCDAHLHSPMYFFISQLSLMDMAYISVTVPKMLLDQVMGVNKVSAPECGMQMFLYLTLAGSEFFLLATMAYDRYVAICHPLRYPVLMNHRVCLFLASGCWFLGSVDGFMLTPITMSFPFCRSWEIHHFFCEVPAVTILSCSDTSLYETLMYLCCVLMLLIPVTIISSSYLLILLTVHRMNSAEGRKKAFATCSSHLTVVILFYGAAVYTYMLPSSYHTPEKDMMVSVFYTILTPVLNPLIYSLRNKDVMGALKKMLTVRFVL
Outline: as §1

[3] = test system: T3, O2T29; remark: listed apart in the source
T3 sequence (whole entry): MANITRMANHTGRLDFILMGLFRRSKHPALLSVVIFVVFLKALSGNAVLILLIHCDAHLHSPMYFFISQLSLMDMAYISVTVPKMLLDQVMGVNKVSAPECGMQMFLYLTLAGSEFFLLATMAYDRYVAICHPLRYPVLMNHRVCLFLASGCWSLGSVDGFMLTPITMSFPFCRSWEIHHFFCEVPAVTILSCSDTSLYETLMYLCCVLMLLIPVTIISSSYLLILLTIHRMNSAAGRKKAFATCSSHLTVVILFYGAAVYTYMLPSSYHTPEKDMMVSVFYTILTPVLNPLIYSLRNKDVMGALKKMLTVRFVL
Outline: as §1

[4] = test system: T4, O2T33
T4 sequence (whole entry): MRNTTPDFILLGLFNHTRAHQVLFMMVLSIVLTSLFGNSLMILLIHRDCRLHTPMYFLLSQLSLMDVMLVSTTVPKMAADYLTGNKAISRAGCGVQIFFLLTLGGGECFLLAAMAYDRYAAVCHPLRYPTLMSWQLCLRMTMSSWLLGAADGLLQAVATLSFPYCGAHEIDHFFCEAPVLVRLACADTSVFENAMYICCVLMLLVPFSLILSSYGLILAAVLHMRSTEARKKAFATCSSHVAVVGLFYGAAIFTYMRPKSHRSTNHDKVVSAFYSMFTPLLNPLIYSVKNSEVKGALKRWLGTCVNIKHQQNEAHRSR
Outline: as §1

[5] = test system: T5, O2T34
T5 sequence (whole entry): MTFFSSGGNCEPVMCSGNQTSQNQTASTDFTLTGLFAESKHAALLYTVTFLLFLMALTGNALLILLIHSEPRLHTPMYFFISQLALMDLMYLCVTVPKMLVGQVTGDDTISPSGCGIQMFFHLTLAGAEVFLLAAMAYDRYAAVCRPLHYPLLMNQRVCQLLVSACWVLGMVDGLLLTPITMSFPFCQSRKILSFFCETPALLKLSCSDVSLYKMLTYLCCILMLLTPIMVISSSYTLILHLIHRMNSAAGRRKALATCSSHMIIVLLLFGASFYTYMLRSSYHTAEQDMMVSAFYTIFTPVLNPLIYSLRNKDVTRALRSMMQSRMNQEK
Outline: as §1

[6] = test system: T6, O2T35
T6 sequence (whole entry): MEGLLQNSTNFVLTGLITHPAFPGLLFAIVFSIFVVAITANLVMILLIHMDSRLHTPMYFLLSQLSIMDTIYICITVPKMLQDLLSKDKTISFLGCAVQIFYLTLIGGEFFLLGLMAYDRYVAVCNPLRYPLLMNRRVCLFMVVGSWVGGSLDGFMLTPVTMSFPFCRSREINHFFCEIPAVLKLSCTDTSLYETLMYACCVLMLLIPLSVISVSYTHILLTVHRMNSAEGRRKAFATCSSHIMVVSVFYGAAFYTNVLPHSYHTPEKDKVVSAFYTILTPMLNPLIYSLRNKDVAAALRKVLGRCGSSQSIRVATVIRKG
Outline: as §1

[7] = test system: O4A15
Outline: as §1

[8] = test system: T7, O4A47
T7 sequence (whole entry): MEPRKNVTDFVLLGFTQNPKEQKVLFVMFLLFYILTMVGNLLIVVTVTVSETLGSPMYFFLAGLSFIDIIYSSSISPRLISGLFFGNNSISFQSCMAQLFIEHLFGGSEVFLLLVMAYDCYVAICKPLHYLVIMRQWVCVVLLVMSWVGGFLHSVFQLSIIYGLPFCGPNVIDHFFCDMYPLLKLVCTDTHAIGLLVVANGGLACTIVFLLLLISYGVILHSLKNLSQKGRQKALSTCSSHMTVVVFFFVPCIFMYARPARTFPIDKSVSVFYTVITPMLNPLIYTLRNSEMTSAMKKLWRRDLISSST
Outline: as §1

[9] = test system: O4C46
Outline: as §1

[10] = test system: T8, O4F17
T8 sequence (whole entry): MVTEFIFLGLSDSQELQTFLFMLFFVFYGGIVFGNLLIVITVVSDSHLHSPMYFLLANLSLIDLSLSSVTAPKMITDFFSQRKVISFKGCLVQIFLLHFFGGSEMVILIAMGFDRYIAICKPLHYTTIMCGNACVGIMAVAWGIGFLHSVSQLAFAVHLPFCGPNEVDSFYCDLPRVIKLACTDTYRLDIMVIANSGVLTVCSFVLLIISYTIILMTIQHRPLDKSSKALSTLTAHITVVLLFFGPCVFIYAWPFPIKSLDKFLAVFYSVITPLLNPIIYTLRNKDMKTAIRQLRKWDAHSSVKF
Outline: as §1

[11] = test system: T9, O4F17; remark: listed apart in the source
T9 sequence (whole entry): T8 sequence (whole entry) with E15G, Q293R
Outline: as §1

[12] = test system: T10, O4F21
T10 sequence (whole entry): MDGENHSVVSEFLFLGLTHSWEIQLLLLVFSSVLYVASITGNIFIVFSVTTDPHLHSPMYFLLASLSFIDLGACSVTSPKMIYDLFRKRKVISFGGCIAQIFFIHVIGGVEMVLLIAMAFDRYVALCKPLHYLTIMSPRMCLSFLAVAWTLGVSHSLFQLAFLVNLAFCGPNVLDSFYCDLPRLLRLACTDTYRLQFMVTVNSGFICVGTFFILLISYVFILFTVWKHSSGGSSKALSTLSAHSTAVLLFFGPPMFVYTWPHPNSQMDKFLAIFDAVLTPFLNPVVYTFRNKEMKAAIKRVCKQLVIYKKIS
Outline: as §1

[13] = test system: T11, O51A4
T11 sequence (whole entry): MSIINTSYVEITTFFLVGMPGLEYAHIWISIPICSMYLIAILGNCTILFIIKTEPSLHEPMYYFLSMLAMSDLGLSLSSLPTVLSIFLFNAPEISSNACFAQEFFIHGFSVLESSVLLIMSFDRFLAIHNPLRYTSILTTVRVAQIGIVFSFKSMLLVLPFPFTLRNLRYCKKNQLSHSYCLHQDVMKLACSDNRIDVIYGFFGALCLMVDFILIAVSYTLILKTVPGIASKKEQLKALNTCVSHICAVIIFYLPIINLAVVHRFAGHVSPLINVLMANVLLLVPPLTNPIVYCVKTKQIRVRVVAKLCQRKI
Outline: as §1

[14] = test system: T12, O51B4
T12 sequence (whole entry): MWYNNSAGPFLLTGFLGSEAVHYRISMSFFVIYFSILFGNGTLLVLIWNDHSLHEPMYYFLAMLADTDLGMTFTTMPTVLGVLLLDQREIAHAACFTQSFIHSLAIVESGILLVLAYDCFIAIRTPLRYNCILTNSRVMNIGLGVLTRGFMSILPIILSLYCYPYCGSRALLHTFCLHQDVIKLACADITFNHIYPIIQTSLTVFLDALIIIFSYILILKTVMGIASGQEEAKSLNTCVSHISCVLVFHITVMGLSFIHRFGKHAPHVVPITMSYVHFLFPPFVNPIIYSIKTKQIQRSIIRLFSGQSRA
Outline: as §1

[15] = test system: T13, O51B5
T13 sequence (whole entry): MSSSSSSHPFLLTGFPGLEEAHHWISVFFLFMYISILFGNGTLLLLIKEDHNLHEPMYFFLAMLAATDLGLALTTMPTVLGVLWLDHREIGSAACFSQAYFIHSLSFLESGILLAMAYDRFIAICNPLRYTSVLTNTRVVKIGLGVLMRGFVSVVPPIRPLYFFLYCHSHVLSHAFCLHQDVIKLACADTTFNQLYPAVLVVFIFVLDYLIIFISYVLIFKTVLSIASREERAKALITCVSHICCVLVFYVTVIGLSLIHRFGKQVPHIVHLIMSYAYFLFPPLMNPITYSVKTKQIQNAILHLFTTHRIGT
Outline: as §1

[16] = test system: T14, O51B6
T14 sequence (whole entry): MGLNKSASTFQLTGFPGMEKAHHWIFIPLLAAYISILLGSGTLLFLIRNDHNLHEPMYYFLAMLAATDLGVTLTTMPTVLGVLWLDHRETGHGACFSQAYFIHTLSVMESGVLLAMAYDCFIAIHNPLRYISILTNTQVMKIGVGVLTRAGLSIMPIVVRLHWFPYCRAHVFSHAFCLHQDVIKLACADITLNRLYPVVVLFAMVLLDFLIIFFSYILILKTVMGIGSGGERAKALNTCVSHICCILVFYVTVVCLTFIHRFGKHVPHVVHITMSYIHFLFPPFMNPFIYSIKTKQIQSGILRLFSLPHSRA
Outline: as §1

[17] = test system: T15, O51E1
T15 sequence (whole entry): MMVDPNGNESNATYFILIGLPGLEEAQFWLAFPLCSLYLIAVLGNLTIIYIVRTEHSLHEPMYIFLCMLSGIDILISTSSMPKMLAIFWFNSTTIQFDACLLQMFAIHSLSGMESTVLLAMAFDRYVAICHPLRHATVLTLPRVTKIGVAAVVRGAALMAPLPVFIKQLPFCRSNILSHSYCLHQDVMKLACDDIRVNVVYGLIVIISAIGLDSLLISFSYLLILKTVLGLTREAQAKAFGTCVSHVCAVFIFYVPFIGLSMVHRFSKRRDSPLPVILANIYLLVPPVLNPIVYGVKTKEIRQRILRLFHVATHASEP
Outline: as §1

[18] = test system: T16, O51F1
T16 sequence (whole entry): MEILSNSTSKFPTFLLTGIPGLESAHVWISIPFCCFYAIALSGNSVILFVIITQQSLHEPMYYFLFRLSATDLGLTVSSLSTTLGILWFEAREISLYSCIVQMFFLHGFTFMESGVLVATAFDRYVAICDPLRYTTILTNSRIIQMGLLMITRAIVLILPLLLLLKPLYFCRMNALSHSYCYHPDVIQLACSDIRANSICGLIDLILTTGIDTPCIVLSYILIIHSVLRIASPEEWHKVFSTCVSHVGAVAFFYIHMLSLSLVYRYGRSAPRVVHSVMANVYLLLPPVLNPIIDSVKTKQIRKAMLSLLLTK
Outline: as §1

[19] = test system: T17, O51F2
T17 sequence (whole entry): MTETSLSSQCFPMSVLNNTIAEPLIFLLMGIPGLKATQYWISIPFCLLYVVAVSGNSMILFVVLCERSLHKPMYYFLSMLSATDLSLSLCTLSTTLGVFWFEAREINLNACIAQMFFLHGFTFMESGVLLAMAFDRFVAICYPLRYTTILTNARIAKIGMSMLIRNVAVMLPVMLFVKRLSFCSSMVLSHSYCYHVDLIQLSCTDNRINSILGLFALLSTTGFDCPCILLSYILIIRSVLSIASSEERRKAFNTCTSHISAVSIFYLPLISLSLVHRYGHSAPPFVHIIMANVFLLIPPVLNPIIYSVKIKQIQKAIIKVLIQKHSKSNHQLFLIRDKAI
Outline: as §1

Measured: odorant receptor agonist call

c1ccc(Oc2ccccc2)cc1
inactive: all assays above

CCCCCCCC=O
active: [4]
inactive: all other assays above

CC12CCC(CC1)C(C)(C)O2
active: [14]
inactive: all other assays above

CC1CCC(C(C)C)C(O)C1 (stereo not drawn)
active: [2] | [6] | [9] | [11] | [15]
inactive: all other assays above

CCCCCC(C)=O
inactive: [1] | [3] | [5] | [7] | [9] | [10] | [13] | [17] | [18] | [19]

CC12C=CCC1C1CCC3=CC(=O)CCC3(C)C1CC2 (stereo not drawn)
active: [6]
inactive: all other assays above

COC(=O)c1ccccc1
active: [1] | [3] | [5]
inactive: [7] | [9] | [10] | [13] | [17] | [18] | [19]

CC1COCc2cc3c(cc21)C(C)(C)C(C)C3(C)C (stereo not drawn)
inactive: [1] | [2] | [6] | [7] | [13] | [14] | [15]
active: all other assays above

CCCCO
active: [11]
inactive: all other assays above
